From publication PMC7977445
Results are given in words; binding and its absence hold for the method and conditions named. In cells and extracts the contact can be indirect. Some results given as binding are weak or reduced against the parent protein; the word gives no strength.

Protein sequences, listed by entry. Tags and fused reporters are not part of them.
UniProt Q15910: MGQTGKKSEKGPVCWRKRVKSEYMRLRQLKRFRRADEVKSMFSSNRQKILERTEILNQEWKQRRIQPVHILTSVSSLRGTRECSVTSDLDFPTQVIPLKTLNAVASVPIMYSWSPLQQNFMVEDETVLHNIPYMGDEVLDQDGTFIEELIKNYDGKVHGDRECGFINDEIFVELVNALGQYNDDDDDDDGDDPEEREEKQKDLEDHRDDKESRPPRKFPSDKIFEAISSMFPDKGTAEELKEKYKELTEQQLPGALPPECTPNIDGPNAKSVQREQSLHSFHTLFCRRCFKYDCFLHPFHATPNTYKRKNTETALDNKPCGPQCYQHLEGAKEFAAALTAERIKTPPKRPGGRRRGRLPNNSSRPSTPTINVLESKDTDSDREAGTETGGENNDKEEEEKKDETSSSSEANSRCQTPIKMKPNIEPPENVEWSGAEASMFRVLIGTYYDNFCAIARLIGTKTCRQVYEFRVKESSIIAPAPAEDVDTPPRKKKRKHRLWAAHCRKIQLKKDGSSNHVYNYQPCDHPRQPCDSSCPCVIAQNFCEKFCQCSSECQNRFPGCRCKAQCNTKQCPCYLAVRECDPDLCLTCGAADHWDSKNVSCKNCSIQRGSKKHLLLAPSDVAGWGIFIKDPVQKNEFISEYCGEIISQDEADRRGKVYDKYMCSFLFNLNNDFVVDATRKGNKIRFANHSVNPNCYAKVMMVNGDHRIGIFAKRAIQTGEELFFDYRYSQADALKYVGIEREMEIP
UniProt P17844: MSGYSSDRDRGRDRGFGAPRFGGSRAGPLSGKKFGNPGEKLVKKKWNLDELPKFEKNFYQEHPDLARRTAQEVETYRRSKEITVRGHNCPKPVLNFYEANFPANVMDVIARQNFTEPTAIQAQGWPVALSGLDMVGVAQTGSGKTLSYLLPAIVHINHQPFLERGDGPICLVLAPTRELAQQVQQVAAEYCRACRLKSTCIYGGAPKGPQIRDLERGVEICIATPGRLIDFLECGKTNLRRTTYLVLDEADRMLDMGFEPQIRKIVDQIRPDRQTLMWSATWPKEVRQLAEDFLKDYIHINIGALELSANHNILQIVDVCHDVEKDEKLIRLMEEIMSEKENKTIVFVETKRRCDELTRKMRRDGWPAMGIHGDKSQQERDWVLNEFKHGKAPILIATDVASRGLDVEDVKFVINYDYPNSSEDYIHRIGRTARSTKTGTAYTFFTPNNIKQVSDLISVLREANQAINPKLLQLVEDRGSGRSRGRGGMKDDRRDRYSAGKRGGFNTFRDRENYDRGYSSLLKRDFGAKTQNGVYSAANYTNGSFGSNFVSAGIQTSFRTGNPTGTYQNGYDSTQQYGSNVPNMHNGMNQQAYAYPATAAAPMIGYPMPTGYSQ
UniProt O75530: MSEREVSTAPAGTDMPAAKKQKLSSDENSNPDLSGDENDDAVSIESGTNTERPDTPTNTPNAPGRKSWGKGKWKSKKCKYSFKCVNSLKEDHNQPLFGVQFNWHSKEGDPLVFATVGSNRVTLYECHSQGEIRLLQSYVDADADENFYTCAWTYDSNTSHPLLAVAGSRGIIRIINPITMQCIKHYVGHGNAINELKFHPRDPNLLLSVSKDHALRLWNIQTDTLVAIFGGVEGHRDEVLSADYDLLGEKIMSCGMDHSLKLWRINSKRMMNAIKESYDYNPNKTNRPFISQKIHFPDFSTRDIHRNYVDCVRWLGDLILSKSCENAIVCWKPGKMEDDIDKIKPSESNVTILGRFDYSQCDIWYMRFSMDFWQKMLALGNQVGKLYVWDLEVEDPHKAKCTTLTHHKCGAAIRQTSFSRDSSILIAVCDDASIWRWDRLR
UniProt Q15022: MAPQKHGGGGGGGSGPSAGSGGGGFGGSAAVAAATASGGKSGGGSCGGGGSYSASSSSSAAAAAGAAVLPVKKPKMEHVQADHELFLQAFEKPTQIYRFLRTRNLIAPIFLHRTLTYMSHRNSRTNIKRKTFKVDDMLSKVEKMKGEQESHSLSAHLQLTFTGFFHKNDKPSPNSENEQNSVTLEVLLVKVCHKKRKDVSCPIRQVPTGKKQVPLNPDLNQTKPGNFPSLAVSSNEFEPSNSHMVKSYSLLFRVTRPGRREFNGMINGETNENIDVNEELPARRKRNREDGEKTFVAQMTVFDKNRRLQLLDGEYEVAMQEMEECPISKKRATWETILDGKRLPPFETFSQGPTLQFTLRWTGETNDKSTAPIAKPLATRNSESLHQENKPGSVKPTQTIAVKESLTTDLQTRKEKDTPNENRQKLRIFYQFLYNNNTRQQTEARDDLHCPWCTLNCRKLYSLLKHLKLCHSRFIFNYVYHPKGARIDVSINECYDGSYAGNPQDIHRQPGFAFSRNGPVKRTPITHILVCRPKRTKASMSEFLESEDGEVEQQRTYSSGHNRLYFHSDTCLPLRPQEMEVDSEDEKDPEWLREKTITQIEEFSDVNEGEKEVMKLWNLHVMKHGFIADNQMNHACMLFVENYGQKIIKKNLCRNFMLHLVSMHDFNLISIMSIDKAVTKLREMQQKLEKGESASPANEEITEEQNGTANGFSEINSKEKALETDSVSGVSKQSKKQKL

How the values were obtained:
[1] = biological target: enhancer of zeste homologue 2 (EZH2) (human (endogenous in U87-MG)) (UniProt Q15910); experiment: co-IP; endogenous proteins in U87-MG lysate (Western and IP lysis buffer); 5 ug anti-EZH2, anti-SUZ12 or anti-DDX5 with protein-A/G agarose beads, 4 °C overnight, five washes with PBS; Western blotting; also after DDX5 or SUZ12 knockdown and after PRADX overexpression
[2] = biological target: enhancer of zeste homologue 2 (EZH2) (human (endogenous in U87-MG)) (UniProt Q15910); experiment: co-IP; as the co-IP with anti-EZH2 or anti-DDX5 antibody, with RNase treatment before the co-IP; immunoblotting with EZH2 or DDX5 antibodies
[3] = biological target: DEAD box protein 5 (DDX5) (human (endogenous in U87-MG)) (UniProt P17844); experiment: co-IP; endogenous proteins in U87-MG lysate (Western and IP lysis buffer); 5 ug anti-EZH2, anti-SUZ12 or anti-DDX5 with protein-A/G agarose beads, 4 °C overnight, five washes with PBS; Western blotting; also after DDX5 or SUZ12 knockdown and after PRADX overexpression

| binding [1] | binding [2] | binding [3] | Substance |
| --- | --- | --- | --- |
| binds | binds | – | DEAD box protein 5 (DDX5) (from UniProt P17844 1-614) |
| – | – | binds | embryonic ectoderm development protein (EED) (from UniProt O75530 1-441) |
| – | – | binds | suppressor of zeste 12 homolog (SUZ12) (from UniProt Q15022 1-739) |
